The structures appear in SMILES notation. Entries after “also recorded” stand apart in the source; their conditions may differ. Further values from the same series stand in other lists.

The nature of data set [1]: Phase solubility of M4N in HP-β-CD (Higuchi and Connors), RP-HPLC. The data set is classed as physicochemical. Conditions: HP-β-CD 0-350 mmol/L, 48 hours, room temperature. Here is the method:
The aqueous solubility of M4N at various concentrations of HP-β-CD was evaluated by the method reported by Higuchi and Connors (1965). […] The M4N/HP-β-CD solutions were then filtered through a 0.45 μm SFCA filter and analyzed via RP-HPLC.

Data set [2] in a line: M4N stability in 11-14 mg/mL PEG 300/HP-β-CD solutions, 24 hours room temperature, RP-HPLC. The data set is classed as physicochemical. Conditions: 11-14 mg/mL M4N, 25% PEG 300 and 30% HP-β-CD. How it is done:
To support manufacturing specifications, this study examined the 24-hour room temperature stability of combinations of PEG 300/HP-β-CD at varying M4N target concentrations. Stock samples of M4N stocks were prepared in 100% PEG 300 at drug concentrations of 33-56 mg/mL at 60° C. as follows.
M4N bulk drug was solubilized to concentrations of 33, 44, 48, 52, 55 and 56 mg/mL (w/w) in PEG 300 using the procedure set forth in Examples 14 and 17, following incubation of at least 2 hours at 60° C. Vigorous vortexing and mixing were necessary for complete solubilization of M4N above 44 mg/mL. The M4N stock solutions were filtered through a 0.45 μm SFCA filter and used within 30 minutes of preparation. Separately, a solution of 40% (w/v) HP-β-CD was prepared in sterile WFI and filtered. Combinations of the 40% HP-β-CD stock and the M4N/PEG 300 stocks were combined in 1.5 mL polypropylene microtubes.
The requisite amount of M4N stock was added to 40% HP-β-CD to yield the final concentrations of drug and excipients listed in Table 28. Samples were gently rotated (˜12 rpm) at room temperature. At 2 and 24 hours of incubation, samples were centrifuged 2 minutes at 13,000 rpm and 50 μL aliquots were removed for RP-HPLC analysis.

As to `COc1ccc(C[C@@H](C)[C@@H](C)Cc2ccc(OC)c(OC)c2)cc1OC` [Formulation M4N, meso-1,4-bis(3,4-dimethoxyphenyl)-2,3-dimethylbutane], the “phase-solubility profile, formation of the M4N/HP-β-CD complex” value in data set [1] is “non-linear”. The “change in solubility / stability after 24 hours incubation at room temperature” value in data set [2] is “little if any changes; also recorded: stable”.

Values taken from US20090022803A1, “Oral Formulations For Delivery of Catecholic Butanes Including Ndga Compounds” (priority 2005, published 2009).
